Measurements as given in paper PMC3875526.

Sequences of proteins named here, by UniProt entry; tags and fusion partners are left off.
UniProt Q04207, whole entry: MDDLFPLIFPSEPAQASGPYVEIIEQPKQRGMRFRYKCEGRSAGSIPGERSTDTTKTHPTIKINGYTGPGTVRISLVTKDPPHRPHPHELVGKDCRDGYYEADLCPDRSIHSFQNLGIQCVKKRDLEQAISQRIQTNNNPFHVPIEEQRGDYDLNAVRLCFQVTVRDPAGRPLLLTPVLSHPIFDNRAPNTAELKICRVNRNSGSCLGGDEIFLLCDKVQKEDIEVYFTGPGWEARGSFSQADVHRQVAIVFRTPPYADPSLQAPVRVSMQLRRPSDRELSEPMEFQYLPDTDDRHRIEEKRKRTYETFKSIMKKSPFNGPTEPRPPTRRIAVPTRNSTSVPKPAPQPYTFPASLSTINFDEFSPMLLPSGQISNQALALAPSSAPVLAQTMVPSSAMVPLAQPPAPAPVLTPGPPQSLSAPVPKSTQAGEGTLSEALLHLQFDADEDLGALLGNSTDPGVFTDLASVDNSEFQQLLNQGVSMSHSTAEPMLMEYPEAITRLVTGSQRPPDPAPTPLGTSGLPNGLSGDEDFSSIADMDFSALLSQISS

Tests used:
[1] = biological target: p65 (RelA) homodimer (mouse (MEF, WT)) (UniProt Q04207); experiment: competition with a labelled probe; details: 1 pmol cold competitor vs 0.025 pmol N1 probe, Complex 1 stated specific to NF-kB; 50 mM NaCl, 30 mM KCl, 10 mM Tris-HCl pH 7.5, 1 mM EDTA, 1 mM DTT, 10% glycerol, 1 ug poly(dI-dC), 5 ug nuclear protein, 0.025 pmol probe; protein in an extract; label: none (cold competitor)
[2] = biological target: p65 (RelA) homodimer (mouse (MEF, WT)) (UniProt Q04207); experiment: EMSA supershift; details: PMA-treated WT MEF nuclear extract, Complex 1; 50 mM NaCl, 30 mM KCl, 10 mM Tris-HCl pH 7.5, 1 mM EDTA, 1 mM DTT, 10% glycerol, 1 ug poly(dI-dC), 5 ug nuclear protein, 0.025 pmol probe; protein in an extract; label: 32P (radiolabeled)
[3] = biological target: p65 (RelA) homodimer (mouse (MEF, WT)) (UniProt Q04207); experiment: EMSA; details: PMA plus U0126 (3 uM) pretreatment of cells, binding not affected; 50 mM NaCl, 30 mM KCl, 10 mM Tris-HCl pH 7.5, 1 mM EDTA, 1 mM DTT, 10% glycerol, 1 ug poly(dI-dC), 5 ug nuclear protein, 0.025 pmol probe; protein in an extract; label: 32P (radiolabeled)

“AGTTGAGGGGACTTTCCCAGGC (double strand) [NF-kB consensus oligonucleotide]”: binds [1].
“GGAAGGTCTAGGAGACCCCCTAAGATCCCA (double strand) [mouse c-fos promoter kB probe (-226 to -196)]”: binds [2]; binds [3].

The exact form of at least one protein or probe is not confirmed. Where cells or extracts were used, other partners may take part. For part of these data: At least one verdict was read from the data and is not stated in words by the source.
